This experiment concerns the target T1, murine TMEM16A expressed in tsA-201 cells (Ano1 clone in pCMV6-Kan/Neo) (mouse) (UniProt Q8BHY3).
T1 sequence: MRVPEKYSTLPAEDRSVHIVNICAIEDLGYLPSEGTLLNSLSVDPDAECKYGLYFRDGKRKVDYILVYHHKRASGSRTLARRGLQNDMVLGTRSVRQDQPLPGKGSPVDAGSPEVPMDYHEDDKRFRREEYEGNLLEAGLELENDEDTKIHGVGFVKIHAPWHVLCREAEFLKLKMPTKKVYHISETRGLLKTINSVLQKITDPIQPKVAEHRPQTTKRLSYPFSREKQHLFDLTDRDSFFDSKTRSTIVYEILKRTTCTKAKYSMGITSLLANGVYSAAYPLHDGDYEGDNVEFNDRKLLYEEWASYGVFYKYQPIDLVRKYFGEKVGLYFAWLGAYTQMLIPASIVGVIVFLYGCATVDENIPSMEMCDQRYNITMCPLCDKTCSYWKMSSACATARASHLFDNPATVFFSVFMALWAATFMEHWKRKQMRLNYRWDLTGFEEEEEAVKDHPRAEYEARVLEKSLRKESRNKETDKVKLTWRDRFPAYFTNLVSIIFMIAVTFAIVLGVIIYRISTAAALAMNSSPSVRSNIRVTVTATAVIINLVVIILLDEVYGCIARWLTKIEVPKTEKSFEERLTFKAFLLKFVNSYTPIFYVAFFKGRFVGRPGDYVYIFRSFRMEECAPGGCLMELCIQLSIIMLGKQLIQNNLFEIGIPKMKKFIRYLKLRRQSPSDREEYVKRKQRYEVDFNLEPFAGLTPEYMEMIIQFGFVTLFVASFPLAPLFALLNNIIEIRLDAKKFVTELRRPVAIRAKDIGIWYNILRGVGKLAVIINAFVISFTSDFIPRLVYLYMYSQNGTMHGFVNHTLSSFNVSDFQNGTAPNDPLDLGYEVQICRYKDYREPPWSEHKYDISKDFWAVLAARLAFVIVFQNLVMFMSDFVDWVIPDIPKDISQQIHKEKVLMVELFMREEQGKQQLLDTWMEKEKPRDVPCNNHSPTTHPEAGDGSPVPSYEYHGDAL
In words: co-IP; lysates of tsA-201 cells co-transfected with TMEM16A, Cav1.4, β2 and WT or mutant α2δ4; anti-TMEM16A antibody, protein G-agarose; buffer in which the VGCC subunits are dissociated; blots with anti-pan-α1 or anti-Cav1.4.

Protein sequences, listed by entry. Tags and fused reporters are not part of them.
UniProt Q9JIS7: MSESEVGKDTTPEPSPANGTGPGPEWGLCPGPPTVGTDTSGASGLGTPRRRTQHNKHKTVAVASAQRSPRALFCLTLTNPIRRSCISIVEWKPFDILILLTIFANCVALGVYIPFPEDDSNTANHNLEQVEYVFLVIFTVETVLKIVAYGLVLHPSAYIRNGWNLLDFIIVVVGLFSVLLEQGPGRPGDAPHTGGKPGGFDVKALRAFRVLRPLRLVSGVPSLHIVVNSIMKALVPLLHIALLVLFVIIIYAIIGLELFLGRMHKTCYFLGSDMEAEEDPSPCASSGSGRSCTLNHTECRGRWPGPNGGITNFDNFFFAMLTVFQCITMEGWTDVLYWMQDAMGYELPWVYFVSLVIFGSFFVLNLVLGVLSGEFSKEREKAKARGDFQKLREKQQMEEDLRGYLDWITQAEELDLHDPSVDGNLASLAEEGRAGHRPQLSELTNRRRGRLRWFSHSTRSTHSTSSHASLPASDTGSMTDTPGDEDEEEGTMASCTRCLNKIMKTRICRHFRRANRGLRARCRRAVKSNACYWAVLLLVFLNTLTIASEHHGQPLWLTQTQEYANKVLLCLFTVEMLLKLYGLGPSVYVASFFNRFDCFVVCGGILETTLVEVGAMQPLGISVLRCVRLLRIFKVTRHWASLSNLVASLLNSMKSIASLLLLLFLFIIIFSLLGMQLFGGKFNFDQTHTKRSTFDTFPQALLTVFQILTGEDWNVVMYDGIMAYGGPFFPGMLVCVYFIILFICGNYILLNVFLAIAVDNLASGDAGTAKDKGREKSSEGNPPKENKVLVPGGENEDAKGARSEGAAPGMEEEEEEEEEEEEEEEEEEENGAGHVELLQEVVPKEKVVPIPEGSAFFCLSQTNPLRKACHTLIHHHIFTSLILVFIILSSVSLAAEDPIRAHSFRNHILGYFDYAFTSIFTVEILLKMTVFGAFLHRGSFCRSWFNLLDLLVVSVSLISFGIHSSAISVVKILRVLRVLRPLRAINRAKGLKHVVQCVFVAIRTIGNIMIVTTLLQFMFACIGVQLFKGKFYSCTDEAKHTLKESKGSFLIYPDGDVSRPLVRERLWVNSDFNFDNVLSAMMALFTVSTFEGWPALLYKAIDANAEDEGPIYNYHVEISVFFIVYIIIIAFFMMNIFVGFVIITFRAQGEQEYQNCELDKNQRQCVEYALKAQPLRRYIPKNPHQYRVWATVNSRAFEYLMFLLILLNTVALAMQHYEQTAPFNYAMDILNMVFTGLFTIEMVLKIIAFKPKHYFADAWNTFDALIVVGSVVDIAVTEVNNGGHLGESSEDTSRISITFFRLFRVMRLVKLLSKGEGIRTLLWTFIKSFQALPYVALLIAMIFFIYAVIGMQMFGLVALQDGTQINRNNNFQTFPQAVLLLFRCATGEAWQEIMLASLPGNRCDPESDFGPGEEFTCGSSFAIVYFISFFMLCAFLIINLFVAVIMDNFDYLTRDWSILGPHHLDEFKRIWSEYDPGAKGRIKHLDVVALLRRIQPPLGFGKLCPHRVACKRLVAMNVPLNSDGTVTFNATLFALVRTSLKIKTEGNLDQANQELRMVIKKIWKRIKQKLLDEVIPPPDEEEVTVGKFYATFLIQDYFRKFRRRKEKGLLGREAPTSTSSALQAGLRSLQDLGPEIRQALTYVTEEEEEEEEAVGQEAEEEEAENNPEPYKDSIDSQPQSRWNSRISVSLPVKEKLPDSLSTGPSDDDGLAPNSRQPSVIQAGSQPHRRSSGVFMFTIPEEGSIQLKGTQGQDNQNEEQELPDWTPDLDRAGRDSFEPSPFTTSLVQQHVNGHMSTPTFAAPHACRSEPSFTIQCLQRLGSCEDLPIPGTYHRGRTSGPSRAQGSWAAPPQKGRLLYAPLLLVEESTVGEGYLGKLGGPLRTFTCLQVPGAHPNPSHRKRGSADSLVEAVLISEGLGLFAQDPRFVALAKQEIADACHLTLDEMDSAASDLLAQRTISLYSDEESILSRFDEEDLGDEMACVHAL

These are yes or no findings as the source states them, for the method shown. In cells and extracts the contact can be indirect. Some binding calls cover weakened binding; strength is not graded here.

For the substance “murine CaV1.4 expressed in tsA-201 cells (Cacna1f clone in pIRES2-mCherry) (from UniProt Q9JIS7 1-1985)”, the binding result is reported as “binds”.

The values above are taken from PMC4617175.
